This passage reports binding results from article PMC8003813.

Protein sequences, listed by entry. Tags and fused reporters are not part of them. Residues count along the entry.
UniProt P78395, residues 161-415: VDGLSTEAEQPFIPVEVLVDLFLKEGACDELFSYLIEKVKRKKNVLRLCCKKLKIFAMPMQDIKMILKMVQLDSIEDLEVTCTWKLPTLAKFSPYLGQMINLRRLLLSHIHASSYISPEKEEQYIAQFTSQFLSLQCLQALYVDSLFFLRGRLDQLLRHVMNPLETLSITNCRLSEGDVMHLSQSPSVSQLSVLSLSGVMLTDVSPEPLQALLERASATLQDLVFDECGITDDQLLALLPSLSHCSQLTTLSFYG

These are yes or no findings as the source states them, for the method shown.

This assay has as its target recombinant human PRAME region 161-415 (human) (UniProt P78395). Description: SEC; analytical gel filtration, BIOSEP S-2000 column, 25 mM phosphate buffer pH 7.5, 150 mM NaCl, 1.0 mL/min; fraction recovered after urea removal; both purified.

For the substance “recombinant human PRAME region 161-415 (from UniProt P78395 161-415) (domain or fragment)”, the binding result is “no binding”.
